Data from article PMC4753449, “Conformational plasticity of RepB, the replication initiator protein of promiscuous streptococcal plasmid pMV158” (Scientific Reports, 2016).
Results are given in words; binding and its absence hold for the method and conditions named. Some binding calls cover weakened binding; strength is not graded here.

Experiments:
[1] = molecular target: RepB, rolling-circle replication initiator protein of plasmid pMV158 (hexamer) (plasmid pMV158, originally isolated from Streptococcus agalactiae) (UniProt P13921); assay: crystal structure; C2 crystal form of RepB6 co-crystallised with Ba2+; 50 mM TRIS pH 8.5, 100 mM BaCl2, 12% PEG 8K; data to 3.8 Å; both purified
[2] = molecular target: RepB, rolling-circle replication initiator protein of plasmid pMV158 (hexamer) (plasmid pMV158, originally isolated from Streptococcus agalactiae) (UniProt P13921); assay: AUC; RepB6 with metal ions present or absent; data not shown; both purified
[3] = molecular target: RepB OBD (origin binding domain, residues 1 to 132) (plasmid pMV158, originally isolated from Streptococcus agalactiae) (UniProt P13921); assay: AUC; sedimentation equilibrium, 20 °C, 20 mM NaH2PO4 pH 7.0, 150 mM NaCl; OBD 10-60 μM at 22,000 rpm, OD 10-100 μM at 13,000 rpm; single-species model; both purified
[4] = molecular target: RepB OBD (origin binding domain, residues 1 to 132) (plasmid pMV158, originally isolated from Streptococcus agalactiae) (UniProt P13921); assay: AUC; sedimentation velocity, 48,000 rpm, 20 °C, 20 mM NaH2PO4 pH 7.0, 150 mM NaCl; OBD 10-60 μM, OD 10-100 μM; both purified

| Binder | binding [1] | binding [2] | binding [3] | binding [4] |
| --- | --- | --- | --- | --- |
| RepB, rolling-circle replication initiator protein of plasmid pMV158 (hexamer) (natural protein, UniProt P13921 1-210, looked up, RepB, replication initiator protein encoded by the promiscuous plasmid pMV158, originally isolated from Streptococcus agalactiae; 24 kDa polypeptide; OBD (N-terminal) and OD (C-terminal) domains; the OD construct ends at residue 210; The final model of 4U87 comprises residues 3-204 of three protomers in the asymmetric unit; also called RepB6; RepB hexamer) MAKEKARYFTFLLYPESIPSDWELKLETLGVPMAISPLHDKDKSSIKGQKYKKAHYHVLYIAKNPVTADSVRKKIKLLLGEKSLAMVQVVLNVENMYLYLTHESKDAIAKKKHVYDKADIKLINNFDIDRYVTLDVEEKTELFNVVVSLIRAYTLQNIFDLYDFIDENGETYGLTINLVNEVIAGKTGFMKLLFDGAYQRSKRGTKNEER | binds | binds | – | – |
| RepB OBD (origin binding domain, residues 1 to 132) (domain or fragment, UniProt P13921 1-132) MAKEKARYFTFLLYPESIPSDWELKLETLGVPMAISPLHDKDKSSIKGQKYKKAHYHVLYIAKNPVTADSVRKKIKLLLGEKSLAMVQVVLNVENMYLYLTHESKDAIAKKKHVYDKADIKLINNFDIDRYV | – | – | no binding (tested: 10–60 μM) | no binding (tested: 10–60 μM) |
